# Laboratory results taken from PubChem BioAssay AID602313 (National Center for Advancing Translational Sciences (NCATS), 2012).
# The campaign covered roughly 390,000 compounds. About 760 (0.19%) were called active. Inconclusive means that the source gave no clear call. Such entries were picked first, then a sample of the others. Calls follow the shape of the dose curve; as a rule, active = well fitted inhibition curve with a large enough effect; inconclusive = small, poorly fitted or top-dose-only effect; inactive = flat fitted curve, though single readings scatter. Potencies of inconclusive entries are doubtful fits and often do not repeat.
# Experiment: qHTS for Inhibitors of Vif-A3F Interactions: qHTS; also: nearly all actives have a fitted effect of over 65% in size
# Conditions: HeLa A3F-eYFP + Vif (tagged APOBEC3F with the HIV-1 protein that degrades it), YFP fluorescence increase; series mostly up to 46.1 µM
# Summary of the method: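 HeLa cells stably expressing A3F-eYFP plus Vif, plated and incubated overnight at 37 deg C, then exposed to compounds overnight at 37 deg C. Blocked degradation read as raised yellow fluorescence (Ex 488/Em 500-530).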
# Potency is read from the fitted curve at half-maximal effect.
row,Structure (SMILES),Potency
1,CCOCCCN1CN(Cc2ccccc2)CNC1=S,"inconclusive: 22.4 µM [inhibitor, single point]"
2,Cc1ccc(NC(=O)Cn2cc([N+](=O)[O-])nc2C)cc1C,"inconclusive: 4.47 µM [inhibitor, single point]"
3,O=C1/C(=C\c2cc([N+](=O)[O-])ccc2O)SC(=S)N1Cc1ccc(Cl)cc1,active: 12.6 µM
4,CC(=O)NC(Cc1cccc(C)c1)C(=O)NC1CCN(S(=O)(=O)c2ccccc2)CC1 (stereo unspecified),"inconclusive: 25.1 µM [inhibitor, single point]"
5,COc1ccccc1OCc1ccc(C(=O)NCCN(C)C)o1,"inconclusive: 5.62 µM [inhibitor, single point]"
6,CCOc1cc(/C=N\NC(=O)Cc2ccccc2)ccc1OCC(=O)Nc1ccc(C)c(C)c1,"inconclusive: 11.2 µM [inhibitor, partial curve, poor fit]"
7,Cc1ccc([N+](=O)[O-])cc1N/C=C1\CCCCC1=O,"inconclusive: 35.5 µM [inhibitor, single point]"
8,CCN(c1ccc(OC)cc1)S(=O)(=O)c1c(C(=O)N2CCCCCC2)c(C)n(C)c1C,inactive
9,COc1ccc(N2CCN(CC(O)COc3ccccc3C(C)(C)C)CC2)cc1 (stereo unspecified),"inconclusive: 35.5 µM [inhibitor, single point]"
10,CCOC(=O)/C(C#N)=N/Nc1ccccc1OC,"inconclusive: 35.5 µM [inhibitor, single point]"
11,Cc1cc(N2CCCC2)ccc1/C=C1\NC(=S)N(C)C1=O,active: 6.31 µM
12,CN(CCO)c1ccc(C=NNc2ccc([N+](=O)[O-])cc2S(=O)(=O)Nc2ccccc2C(=O)O)cc1,"inconclusive: 10 µM [inhibitor, partial curve, poor fit]"
13,NC(=O)c1c(Nc2nc3c(F)cccc3s2)sc2c1CCCC2,"inconclusive: 28.2 µM [inhibitor, single point]"
14,O=C(OCCN1C(=O)c2cccc3c(N4CCOCC4)ccc(c23)C1=O)c1ccc(Cl)cc1,"inconclusive: 10 µM [inhibitor, partial curve, poor fit]"
15,COc1ccc(-c2csc(NC(=O)C3CSC4(C)CCC(=O)N34)n2)cc1OC (stereo unspecified),inactive
16,COC(=O)CC1(C(=O)OC)Oc2ccc(Br)cc2C(=O)N1c1ccc(Br)cc1Cl (stereo unspecified),"inconclusive: 2.51 µM [inhibitor, full curve, poor fit]"
17,CCc1ccc(NC(=O)c2cc(C)no2)cc1,"inconclusive: 3.98 µM [inhibitor, full curve, poor fit]"
18,Cc1cc(C)c(C)c(S(=O)(=O)Nc2ccccc2C(=O)NCCCN2CCOCC2)c1C,"inconclusive: 35.5 µM [inhibitor, single point]"
19,CN(C)S(=O)(=O)c1cccc(NC(=S)N/N=C/c2ccco2)c1,inactive
20,O=C(O)CCCCCN1C(=O)/C(=C\c2cn(-c3ccccc3)nc2-c2cccs2)SC1=S,"inconclusive: 35.5 µM [inhibitor, single point]"
21,COc1cccc(N(C(=O)CCl)C(C(=O)NCCc2ccccc2)c2cccs2)c1 (stereo unspecified),inactive
22,O=C(N/N=C/c1ccc([N+](=O)[O-])o1)c1cc(-c2cccc(Br)c2)nc2ccccc12,"inconclusive: 35.5 µM [inhibitor, single point]"

row,Structure (SMILES),Potency
1,O=C1C=C(Nc2ccc(Cl)cc2)C(=O)N1c1ccc(Cl)cc1,"inconclusive: 15.8 µM [inhibitor, single point]"
2,Fc1ccc(/C=N/Nc2ccccn2)cc1,"inconclusive: 35.5 µM [inhibitor, single point]"
3,CCOC(=O)/C(C#N)=C\c1ccc(N2CCN(C/C=C/c3ccccc3)CC2)cc1,"inconclusive: 35.5 µM [inhibitor, single point]"
4,O=c1/c(=C\c2cc([N+](=O)[O-])cc([N+](=O)[O-])c2O)sc2nc3ccccc3n12,"inconclusive: 12.6 µM [inhibitor, partial curve, poor fit]"
5,COc1ccc(OC)c(Nc2nc3ccc(C)cc3n3cnnc23)c1,"inconclusive: 17.8 µM [inhibitor, partial curve, poor fit]"
6,COc1cc(Br)cc(/C=N/NC(=O)Cc2ccccc2)c1O,"inconclusive: 17.8 µM [inhibitor, partial curve, poor fit]"
7,O=C(NCc1ccco1)c1ccc(Cl)s1,"inconclusive: 6.31 µM [inhibitor, partial curve, poor fit]"
8,CCOC(=O)C1CCN(CC(C)(C)NS(=O)(=O)c2ccc(C)cc2)CC1,inactive
9,CC(=O)Nc1ccc(C(=O)NNS(=O)(=O)c2ccc(C)cc2)cc1,inactive
10,O=C(Nc1ccccc1)c1ccc2nc(-c3ccco3)c(-c3ccco3)nc2c1,"inconclusive: 35.5 µM [inhibitor, single point]"
11,Cc1cc(C)cc(NC(=O)Nc2ccc(-n3ccc(C(F)(F)F)n3)cc2)c1,"inconclusive: 25.1 µM [inhibitor, single point]"
12,O=C(N/N=C/c1ccccc1C(=O)O)C(=O)N1CCCCC1,"inconclusive: 6.31 µM [inhibitor, single point]"
13,Cc1oc(C)c2c(=O)ccc3c(c12)OC(N)=C(C#N)C3c1ccccc1 (stereo unspecified),"inconclusive: 15.8 µM [inhibitor, single point]"
14,CC1(C)C2CC[C@]3(C)C(CC=C4[C@@H]5C[C@@](C)(CO)[C@@H](O)C[C@]5(C(=O)O)CC[C@]43C)[C@@]2(C)CC[C@@H]1O (stereo partly specified),inactive
15,CN1CCc2c(sc(/N=C/c3c[nH]c4ccccc34)c2C#N)C1,"inconclusive: 25.1 µM [inhibitor, single point]"
16,Cc1cc(C(=O)OCC(=O)Nc2ccc(F)c(F)c2F)c(C)o1,inactive
17,Cc1ccc2nc(/C(C#N)=C/c3ccc(-c4ccccc4C(=O)O)o3)[nH]c2c1,active: 11.2 µM
18,COC(=O)c1ccc(COC(=O)c2ccccn2)cc1,inactive
19,Cc1ccc(/C=c2\sc3nc(-c4ccco4)nn3c2=O)o1,inactive
20,COc1ccc(Nc2nc(-c3cc4cccc(OC)c4oc3=O)cs2)cc1,"inconclusive: 15.8 µM [inhibitor, single point]"
21,CCOC(=O)C1CCN(C(=O)C(CC)c2ccccc2)CC1 (stereo unspecified),"inconclusive: 5.62 µM [inhibitor, single point]"
22,COc1cccc2cc(-c3nnc(Nc4ccccc4C)s3)c(=O)oc12,"inconclusive: 3.55 µM [inhibitor, partial curve, poor fit]"

# Taken from above:
# Value for Cc1cc(C)cc(NC(=O)Nc2ccc(-n3ccc(C(F)(F)F)n3)cc2)c1 under Potency: inconclusive: 25.1 µM [inhibitor, single point]
# Value for CCOC(=O)C1CCN(CC(C)(C)NS(=O)(=O)c2ccc(C)cc2)CC1 under Potency: inactive
# Value for CC1(C)C2CC[C@]3(C)C(CC=C4[C@@H]5C[C@@](C)(CO)[C@@H](O)C[C@]5(C(=O)O)CC[C@]43C)[C@@]2(C)CC[C@@H]1O (stereo partly specified) under Potency: inactive

# Going on with the list.

row,Structure (SMILES),Potency
1,O=C(CC1Nc2ccccc2NC1=O)Nc1ccccc1 (stereo unspecified),active: 12.6 µM
2,CCCc1ccc(Oc2c(-c3ccc(O)c(C)c3O)n[nH]c2C)cc1,inactive
3,O[C@@H]1CN(CC2CCCCC2)[C@@H](c2ccccc2)C[C@H]1n1cc(-c2ccc(F)cc2)nn1,"inconclusive: 22.4 µM [inhibitor, single point]"
4,CC(C)(C)c1ccc(/C=N/NC(=S)NC2CCCCC2)cc1,"inconclusive: 3.16 µM [inhibitor, partial curve, poor fit]"
5,CCC(=O)NC(NC(=S)Nc1c(C)n(C)n(-c2ccccc2)c1=O)C(Cl)(Cl)Cl (stereo unspecified),"inconclusive: 35.5 µM [inhibitor, single point]"
6,Cc1cc(Nc2cccc([N+](=O)[O-])c2)c2cccc(C)c2n1,"inconclusive: 17.8 µM [inhibitor, single point]"
7,CCSc1nnc(N2C(=O)C(O)=C(C(=O)c3ccco3)C2c2cccc(OC)c2)s1 (stereo unspecified),"inconclusive: 35.5 µM [inhibitor, single point]"
8,CC1(C)Cc2c(sc3ncnc(NN)c23)CO1,"inconclusive: 35.5 µM [inhibitor, partial curve, poor fit]"
9,CCc1nnc(NC(=O)CSc2ccc(-c3nc4ccc(C)cc4[nH]3)cn2)s1,"inconclusive: 31.6 µM [inhibitor, single point]"
10,O=C(Nc1ccccc1)c1nc[nH]c1C(=O)NCCNC(=O)c1[nH]cnc1C(=O)Nc1ccccc1,"inconclusive: 17.8 µM [inhibitor, single point]"
11,COc1ccc(F)cc1C(=O)C1CCCN(Cc2cccn2-c2ccccn2)C1 (stereo unspecified),inactive
12,O=C(N[C@@H]1C/C=C\C[C@@H](CC(=O)N(CCO)Cc2ccccc2)C(=O)NC[C@H](c2ccccc2)OC1=O)OCC1c2ccccc2-c2ccccc21,"inconclusive: 25.1 µM [inhibitor, single point]"
13,COc1ccc(-c2nc3c(-c4ccccc4)cnn3cc2C)cc1F,"inconclusive: 12.6 µM [inhibitor, partial curve, poor fit]"
14,COc1cccc(NC(=S)N(CCCN2CCCC2)Cc2cccn2Cc2ccc(Cl)cc2)c1,"inconclusive: 35.5 µM [inhibitor, single point]"
15,O=C(c1cccc([N+](=O)[O-])c1)N1CCOCC1,"inconclusive: 20 µM [inhibitor, single point]"
16,O=C(CN1C(=O)S/C(=C\c2ccccn2)C1=O)Nc1ccccc1,inactive
17,CCc1cc(C(c2ccc(OC)c(OC)c2)N2CCOCC2)c(NC(=O)c2ccccc2)s1 (stereo unspecified),inactive
18,CCC(=O)N1c2ccccc2CC1C(=O)NCCc1ccc(SC)cc1 (stereo unspecified),inactive
19,CCCCN(C)CC(O)Cn1cc(/C=C/C(=O)c2cccs2)c2ccccc21 (stereo unspecified),active: 28.2 µM
20,Cc1cc(NC(=O)CSc2ccc(F)cc2)no1,inactive
21,O=C(N/N=C\c1ccc(-c2ccc([N+](=O)[O-])cc2)o1)c1ccc2c(c1)OCO2,"inconclusive: 15.8 µM [inhibitor, single point]"
22,O=C(CSc1ncccn1)Nc1ncc(C(F)(F)F)cc1Cl,inactive
